Results are given in words; binding and its absence hold for the method and conditions named. In cells and extracts the contact can be indirect.
Target: soluble varicella-zoster virus gE with a C-terminal (His)6 tag (varicella-zoster virus (strain not stated))
Assay: pull-down; THY-1-His or control VZV gE-His bound to Ni-NTA or Talon columns; HCMV-infected cell lysate (PBS with 0.1% NP-40, or 25 mM Tris, 15 mM NaCl and 0.1% NP-40) incubated at 4°C overnight; washed with PBS, eluted with 250 mM imidazole, immunoblotted; only the target purified

B1: HCMV ICP8 (135 kD), from MRC-5 cells infected with HCMV AD169 (protein, UniProt P17147 1-1235)
chain: MSHEELTALAPVGPAAFLYFSRLNAETQEILATLSLCDRSSSVVIAPLLAGLTVEADFGVSVRTPVLCYDGGVLTKVTSFCPFALYFHHTQGIVAFTEDHGDVHRLCEDARQKYALEAYMPEADRVPTDLAALCAAVGCQASETTVHVVVGNGLKEFLFAGQLIPCVEEATTVRLHGGEAVRVPLYPPTLFNSLQLDAEADEVSLDARSAFVEARGLYVPAVSETLFYYVYTSWCQSLRFSEPRVLIEAALRQFVHDSQQSVKLAPHKRYLGYMSQRLSSLEKDHLMLSDAVVCELAFSFASVFFDSAYQPAESMLFSEWPLVTNATDHRDLIRALTELKLHLSTHVAALVFSANSVLYQHRLVYLQSSARHPSAGGTASQETLLKAIQFTNGLSAACEDVYNDARKVLKFQGAPLKDERYGPQHLALVCGTCPQLVSGFVWYLNRVSVYNTGLSGSSTLTNHLVGCAAGLCEACGGTCCHTCYQTAFVRVRTRLPVVPKQPKKEPCVITVQSRFLNDVDILGSFGRRYNVDAKDGGLDGKGDDGVPGGGAGGGGGRDVSGGPSDGLGGGRGGGGGGDSGGMMGRGGRMLGASVDRTYRLNRILDYCRKMRLIDPVTGEDTFSAHGKSDFVAVFSALNKFVDDEALGFVSEVRLKSSRDEVAGATQAFNLDLNPYAVAFQPLLAYAYFRSVFYVIQNVALITATSYIVDNPLTTNLVSKWMTQHFQSIHGAFSTTSSRKGFLFTKQIKSSKNSDHDRLLDFRLYAQGTYAVVPMEIKLSRLSVPTLIMVRVKNRPIYRAGKGNAGSVFFRRDHVPRRNPAKGCLGFLLYRHHERLFPECGLPCLQFWQKVCSNALPKNVPIGDMGEFNAFVKFLVAVTADYQEHDLLDVAPDCVLSYVESRFHNKFLCYYGFKDYIGSLHGLTTRLTTQNHAQFPHVLGASPRFSSPAEFALHVKGLKTAGVPAPMAATVARESLVRSVFEHRSLVTVPVSVEKYAGINNSKEIYQFGQIGYFSGNGVERSLNVSSMSGQDYRFMRQRYLLATRLADVLIKRSRRENVLFDADLIKNRVMLALDAENLDCDPEVMAVYEILSVREEIPASDDVLFFVDGCEALAASLMDKFAALQEQGVEDFSLENLRRVLDADAQRLTDAAGGEVHDLSALFAPSGVGAASGVGGGGLLLGESVAGNSICFGVPGETGGGCFLVNAGEDEAGGVGGSSGGGGGSGLLPAKRSRL
**Q.** How did the binding turn out when B1 was run?
**A.** The binding was “no binding”.

Reference: paper PMC4492587
